# Library screen at single concentrations

Amino acid sequences for entries named in this document (tags omitted).
UniProt P9WNZ1, whole entry: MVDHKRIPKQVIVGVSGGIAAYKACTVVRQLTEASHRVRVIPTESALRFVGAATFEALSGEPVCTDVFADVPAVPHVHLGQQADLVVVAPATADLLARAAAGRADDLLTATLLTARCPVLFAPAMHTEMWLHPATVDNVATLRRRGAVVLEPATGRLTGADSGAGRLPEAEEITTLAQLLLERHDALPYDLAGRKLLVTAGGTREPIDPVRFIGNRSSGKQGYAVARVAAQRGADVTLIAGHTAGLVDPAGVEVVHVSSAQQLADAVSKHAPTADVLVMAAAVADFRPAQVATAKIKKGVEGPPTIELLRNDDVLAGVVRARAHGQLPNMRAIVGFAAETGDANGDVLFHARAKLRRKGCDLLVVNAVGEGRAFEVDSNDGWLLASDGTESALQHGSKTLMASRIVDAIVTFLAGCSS

A: 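Cell assay of Leishmania donovani living inside macrophages; the read-out is not stated. Concentration: 30 µM. The record gives no direction; compounds that gave an IC50 in retests scored well above the rest, so higher reads as stronger inhibition. About 69,000 compounds were tested under these conditions; 1.5% (about 1,000) showed 50% or more at least once.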
B: 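Coenzyme A biosynthesis protein CoaBC, Mycobacterium tuberculosis (UniProt P9WNZ1). Enzyme assay of CoaBC with a phosphate dye (Biomol Green) read at 650 nm. Concentration: 30 µM. Higher reads as stronger inhibition, judged from the few compounds that gave an IC50. Most strong results did not repeat in a second test. Size under these conditions: about 67,000 compounds, about 40 of them at 50% or above in at least one test.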

Results are given as percent effect. How 0% and 100% were set is not recorded. Most values in the screen are low, and negative values occur. Compounds were drawn at random from those tested, without regard to their results.

{"smiles": "CC(=O)N[C@@H]1CN(C2CCN(c3cccc(C)c3C)CC2)C[C@H]1C(C)C", "A": -5.893, "B": 7.258}
{"smiles": "Cc1ncoc1C(=O)N1CCc2[nH]nc(-c3ccc4c(c3)OCO4)c2C1", "A": 10.6, "B": 12.15}
{"smiles": "[H][C@@]12CCCO[C@]1([H])[C@@H](N(C)Cc1cncnc1)CN2C(=O)c1ccc[nH]1", "A": 13.74}
{"smiles": "COCCC(=O)NCCn1nc(C2CCNC2)c2cccnc21", "stereo": "stereo not drawn", "B": -2.206}
{"smiles": "Cc1ccc(C(=O)N2[C@@H]3CC[C@H]2CN(C)C(=O)C3)c(=O)[nH]1", "B": 2.642}
{"smiles": "O=C(C1CCOCC1)N1CCN(CC2CC2)c2ncccc2C1", "A": -21.83, "B": 4.574}
{"smiles": "CC(=O)N1CC(C)CN(Cc2ccon2)c2ccccc21", "stereo": "stereo not drawn", "A": 31.09, "B": 0.319}
{"smiles": "O=C(CNc1cccc2c1CCCC2)Nc1ccccc1Br", "A": 12.85, "B": 4.292}
{"smiles": "O=C(CC1Cn2ncnc2NC1=O)Nc1ccc(F)c(F)c1", "stereo": "stereo not drawn", "A": 18.08, "B": 5.526}
{"smiles": "Cc1cc(NC(=O)N2CCN(C)CC2C)n(Cc2ccccc2)n1", "stereo": "stereo not drawn", "A": -22.39, "B": 7.051}
{"smiles": "Cc1cc(N(C)C)nc(C2COCCN2Cc2nccn2C)n1", "stereo": "stereo not drawn", "A": 0.41, "B": 0.6849}
{"smiles": "CCN1CCC2(CC1)CN(C(=O)c1cccnc1)c1ccc(Cl)cc12.O=C(O)C(F)(F)F.O=C(O)C(F)(F)F", "A": 23.43}
{"smiles": "CCN1CCC(CC(=O)NCCc2nc(N)cc(O)n2)CC1", "A": -25.03, "B": -12.25}
{"smiles": "Cc1cc(C)n(C2CCCN(C(=O)c3cn4cccnc4n3)C2)n1", "stereo": "stereo not drawn", "A": 13.62, "B": -5.59}
{"smiles": "CCN(CC)C(CNS(=O)(=O)NCc1ccccc1)c1ccco1", "stereo": "stereo not drawn", "A": 10.39, "B": -2.539}
{"smiles": "COc1ccc2c(c1)CN(Cc1nc3ccsc3c(=O)[nH]1)CC2", "A": 25.49, "B": 2.057}
{"smiles": "CNC(=O)[C@H]1C[C@H]2OCC[C@H]2N(Cc2ccc(C)o2)C1", "B": -0.8872}
{"smiles": "CCc1nc(CN2CCN(C(=O)N3CCCCC3)CC2)cs1", "A": -29.32, "B": 0.2273}
{"smiles": "O=C(c1ccnnc1)N1CCN2C[C@H](Oc3cccnc3)C[C@H]2C1", "B": 7.431}
{"smiles": "c1ccc(OCCN2CCCC(c3noc(C4CC4)n3)C2)cc1", "stereo": "stereo not drawn", "A": 2.943, "B": -11.61}
{"smiles": "Cn1cccc1-c1cc(C(=O)N2CC(c3cccnc3)C2)[nH]n1", "A": -22.64, "B": 1.316}
{"smiles": "Cc1nc(N2C[C@@H](CN3CCCCC3)[C@@H](CO)C2)c2sccc2n1", "A": -3.71, "B": 1.653}
{"smiles": "NC(=O)c1cnn2c1NCC(CNCC1(c3ccccc3)CCC1)C2", "stereo": "stereo not drawn", "A": 16.83, "B": 7.282}
{"smiles": "Cc1ccc2c(n1)N(C)CCN(Cc1cnn(C)c1)C2", "A": 33.48, "B": 4.485}
{"smiles": "NC(=O)c1c(SCCN2CCOCC2)sc2c(O)cc(=O)[nH]c12", "A": 12.76, "B": 1.139}
{"smiles": "CC(C)NC(=O)C1CN(C(N)=O)Cc2ccnn2C1", "stereo": "stereo not drawn", "A": -8.868, "B": -1.396}
{"smiles": "CN(Cc1cn2c(n1)CN(Cc1nccs1)CC2)Cc1ccco1.O=C(O)C(F)(F)F.O=C(O)C(F)(F)F", "A": 43.15}
{"smiles": "Cc1nc(NC2CCS(=O)(=O)CC2)cc(C2CCCNC2)n1", "stereo": "stereo not drawn", "A": -9.522, "B": 9.402}
{"smiles": "COc1ccc(OCC(C)NS(C)(=O)=O)cc1", "stereo": "stereo not drawn", "A": 3.024, "B": -0.4202}
{"smiles": "CN(C)C(=O)c1ccc(C2CCCNC2)nc1", "stereo": "stereo not drawn", "B": 8.282}
{"smiles": "[H][C@@]12CCN(C(C)=O)C[C@@]1([H])[C@H](C(=O)Nc1cccnc1C)CCO2", "A": 15.02}
{"smiles": "Cc1nc2cc(OCc3nc(C(=O)NC(CO)CO)co3)ccc2s1", "A": 0.5461, "B": 1.086}
{"smiles": "COCCC(=O)N1CCC2(CCN(Cc3ccc(OC)c(F)c3)C2)C1", "stereo": "stereo not drawn", "A": -20.78, "B": 3.713}
{"smiles": "Cc1nccn1C1CCCN(C(=O)CCc2nc(C(C)C)no2)C1", "stereo": "stereo not drawn", "A": 9.59, "B": 5.159}
{"smiles": "Cc1ccc(N2CC[C@@H]3O[C@@H](COCc4cccnc4)CC[C@@H]32)nn1", "B": -6.721}
{"smiles": "Cc1cc(C2CCCCCN2Cc2cn(C)nc2C)no1", "stereo": "stereo not drawn", "A": 2.795, "B": 0.8674}
{"smiles": "COc1cc(C)nc(N2CCN(C(=O)COCC(F)(F)F)CC2)n1", "A": 23.59, "B": 5.959}

2 of the entries, repeated:

{"smiles": "Cc1cc(NC(=O)N2CCN(C)CC2C)n(Cc2ccccc2)n1", "stereo": "stereo not drawn", "A": -22.39, "B": 7.051}
{"smiles": "CCN(CC)C(CNS(=O)(=O)NCc1ccccc1)c1ccco1", "stereo": "stereo not drawn", "A": 10.39, "B": -2.539}

Data taken from ChEMBL document CHEMBL3988442, “University of Dundee, Small-Polar-MMV Screening Library” (2021).